The other results are listed elsewhere or left out. These are further read-outs of the screen, such as a control signal, another cell line or another target. No call is given for them. The list favours compounds with an active or inconclusive main result. The note in brackets gives the kind of curve behind each potency; many fits are weak.
Assay: qHTS Assay for Lipid Storage Modulators in Drosophila S3 Cells;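 on cell number change: cells counted by Cell Tracker Red CMTPX staining in the red channel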
Settings: BODIPY lipid droplet fluorescence, 18-24 h; for cell number change: measured here: cell count max response, cells fed with added oleic acid
How it was run: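 Drosophila S3 cells got compounds at several concentrations plus oleic acid (400 uM solution). Laser-scanning cytometry with 488 nm excitation read lipid droplets at 500-530 nm and cells at 575-640 nm. Percent activity was relative to 20 uM Triacsin C.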

[1] = measured here: cell number channel AC50, cells fed with added oleic acid
[2] = measured here: lipid fluorescence (Fed channel) AC50, cells fed with added oleic acid

Compound | cell number change | AC50 [1] | AC50 [2]
COc1ccc(-c2csc(NC(=O)CSc3nc(SC)ns3)n2)cc1 | -60.1% | 18.4 µM [falling, single point] | 29.1 µM [falling, single point]
Cc1cc(C)nc(-n2nc(C)c(Oc3ccccc3O)c2C)n1 | -26.3% | – | 9.2 µM [falling, partial curve, poor fit]
CN1CCN(CCCNC(=O)Cn2nc(-c3ccccc3)ccc2=O)CC1 | -9.77% | – | 0.13 µM [falling, full curve, poor fit]
COc1ccc(CC(=O)NNC(=O)c2nn(Cc3ccccc3)c(=O)c3ccccc23)cc1OC | -49% | 29.1 µM [falling, single point] | 29.1 µM [falling, single point]
O=C(Cn1cnc2ccccc21)OCC(=O)N1CCCc2ccccc21 | -6.71% | – | 0.116 µM [falling, full curve, poor fit]
NNC(=O)c1cc2c(ccc3ccccc32)o1 | – | 6.51 µM [falling, single point] | –
COc1cc(OC)cc(C(=O)Nc2ccc3c(c2)n(C)c(=O)n3C)c1 | 2.49% | – | –
CN1CCN(S(=O)(=O)c2ccc(-c3ccc(S(=O)(=O)N4CCN(C)CC4)cc3)cc2)CC1 | 0.133% | – | –
ClCc1c2ccccc2cc2ccccc12 | 14.9% | – | 3.66 µM [rising, partial curve]
Cc1noc(C)c1CSc1nnc(-c2ccccc2)n1Cc1ccco1 | -11.7% | – | –
CC(C)C(=O)Nc1nnc(S(=O)(=O)N2c3ccccc3CC2C)s1 (configuration not stated) | 3.29% | – | –
O=C(Cc1ccccc1)Nc1cccc(N2C(=O)C=CC2=O)c1 | -96% | 2.06 µM [falling, partial curve] | 29.1 µM [falling, single point]
COc1ccc(C2C(C(C)=O)=C(O)C(=O)N2c2ccc(O)cc2)cc1 (configuration not stated) | 11.8% | – | 0.651 µM [falling, partial curve, poor fit]
COc1ccc(/C(N)=N/OC(=O)c2cc(-c3ccccc3)nc3ccccc23)cc1 | 22.2% | – | 4.61 µM [rising, partial curve, poor fit]
COc1ccc(OC)c(C2=Nn3c(nnc3C3CCCCC3)SC2)c1 | -8.45% | – | 1.03 µM [rising, single point]
O=C(NCc1cccc(Cl)c1)c1ccc2c(c1)OCO2 | 47.9% | 0.92 µM [rising, full curve] | 6.51 µM [rising, single point]
CCOc1cc2[nH]c(=S)n(Cc3ccc(C(=O)NCC(OC)OC)cc3)c(=O)c2cc1OCC | 23.4% | – | 1.46 µM [rising, full curve]
Cc1cccc(N(C(=O)Cn2nnc3ccccc32)C(C(=O)NCc2ccco2)c2ccncc2)c1C (configuration not stated) | 32.8% | 32.6 µM [rising, single point] | –
Cc1ccc(S(=O)(=O)N2CCOCC2)cc1NC(=O)c1cc2c(s1)CCC2 | 93.7% | 16.4 µM [rising, single point] | 18.4 µM [rising, partial curve]
CCN(CC)S(=O)(=O)c1ccc(C(=O)Nc2cc(C)on2)cc1 | 2.78% | – | –

Compound | cell number change | AC50 [1] | AC50 [2]
COCCNC(=O)C1CCN(S(=O)(=O)N2CCC3(CC2)OCCO3)CC1 | -29% | – | 29.1 µM [falling, single point]
COCC(=O)Nc1cc(C(=O)Nc2ccccc2C)ccc1Cl | 44.8% | 6.51 µM [rising, partial curve] | 3.26 µM [rising, partial curve]
Cc1cc(Nc2c(C)cccc2C)n2nc(C)nc2n1 | 34.3% | 29.1 µM [rising, single point] | 29.1 µM [rising, single point]
O=C(NC(=S)Nc1ccc2c(c1)C(=O)c1ccccc1C2=O)c1ccc(F)cc1 | 6.24% | – | 0.164 µM [rising, full curve, poor fit]
O=C(/C=C/c1cn(-c2ccccc2)nc1-c1cccc(Cl)c1)N1CCN(c2ccccn2)CC1 | -9.19% | 0.00411 µM [falling, full curve, poor fit] | 6.51 µM [falling, single point]
O=C(NCCc1nc2ccccc2[nH]1)/C(=C/c1ccc2c(c1)OCO2)NC(=O)c1ccccc1 | -23.9% | – | –
Cc1cc(N2CCCCC2)nc2ccc(NC(=O)CCC(=O)NCCC(C)C)cc12 | -70.5% | 18.4 µM [falling, single point] | –
CCC1CCCCN1CCCNC(=O)c1cc2c(=O)[nH]c3ccccc3c2n1C (configuration not stated) | 22.7% | – | –
COc1ccc(Nc2ncnc3ccc(C)cc23)cc1 | -22.5% | – | 6.51 µM [falling, single point]
CCN(CC)C(=O)C1CCCN(c2ccc([N+](=O)[O-])cc2/C=N/NC(=O)c2cccc(O)c2)C1 (configuration not stated) | 25.3% | – | 0.0206 µM [rising, full curve, poor fit]
Cc1ccc(SCC(=O)Nc2ccc3c(c2)C(=O)NC3=O)cc1 | 26% | 3.66 µM [rising, single point] | 25.9 µM [rising, single point]
CN(C(=O)CNC(=O)c1ccc(Br)o1)C1CCCCC1 | 4.14% | – | 23.1 µM [rising, single point]
O=C(CCNC(=O)Cn1ccc2ccccc2c1=O)NCC1CCCC1c1ccccc1 (configuration not stated) | -53.5% | 14.6 µM [falling, single point] | –
CC(C)N(C)C1CCN(C(=O)Nc2ccc(Cl)c(Cl)c2)CC1 | 0.0064% | – | –
Cc1noc(C)c1S(=O)(=O)Nc1ccc(C(=O)N2CCN(c3ccc(Cl)cc3)CC2)cc1 | -30.2% | 10.3 µM [falling, partial curve] | 0.651 µM [falling, full curve, poor fit]
O=C(Nc1ccc(F)cc1)Nn1cnnc1 | -24.8% | 0.58 µM [falling, full curve, poor fit] | –
COc1ccc(CNC(=O)CN(C)S(=O)(=O)c2ccc3c(c2)c(=O)n(C)c(=O)n3C)cc1 | -23.6% | – | 29.1 µM [falling, partial curve]
Cc1ccc(C2=NN=C(NC(=O)CSc3nc(C)cc(C)n3)SC2)cc1 | -41.4% | 14.6 µM [falling, partial curve] | 14.6 µM [falling, single point]
Cc1ccccc1CSCC(=O)NNC(=S)NCC1CCCO1 (configuration not stated) | 5.49% | – | 29.1 µM [rising, single point]
CCCc1cc(=O)oc2cc(OC(=O)CN3C(=O)NC4(CCCC4)C3=O)ccc12 | 21.4% | – | 29.1 µM [rising, single point]

Compound | cell number change | AC50 [1] | AC50 [2]
O=C(N=Nc1c(O)n(Cc2ccccc2)c2ccccc12)c1cc2ccccc2cc1O | -35.7% | 5.8 µM [falling, full curve] | –
CCCCNC(=O)CSc1nc2ccc(N3CCOCC3)cc2c(=O)n1Cc1ccc(OC)cc1 | -59.6% | 29.1 µM [falling, single point] | 29.1 µM [falling, single point]
COc1ccccc1Cc1noc(C(C)(C)NC(=O)c2ccccc2)n1 | 2.06% | – | –
COc1ccc(S(=O)(=O)N2CCCC2CNC(=O)C(=O)Nc2cccc(F)c2)cc1 (configuration not stated) | 17.1% | – | –
CC(NC(=O)c1cc2cc(Br)ccc2oc1=N)c1ccccc1 (configuration not stated) | -17.3% | – | –
CCOC(=O)N1CCN(C(=O)CN(Cc2ccc(Cl)cc2)S(C)(=O)=O)CC1 | 12.6% | – | 20.6 µM [rising, partial curve]
COc1cccc(CN2CCN(CC#Cc3ccccc3)CC2CCO)c1 (configuration not stated) | 15.4% | – | 16.4 µM [rising, partial curve]
CCOC(=O)C1CCCN(S(=O)(=O)c2c(C)[nH]c(C)c2C(=O)N2CCCC2)C1 (configuration not stated) | -14.7% | – | 1.46 µM [falling, single point]
O=C(O)/C=C/c1coc2ccc(F)cc2c1=O | 10.5% | – | 6.51 µM [falling, single point]
Cn1c(=O)c2c(nc(SCc3cccnc3)n2Cc2ccc(F)cc2)n(C)c1=O | -31.1% | 0.00517 µM [falling, full curve, poor fit] | 0.00651 µM [falling, full curve, poor fit]
COc1ccc(-n2c(=S)[nH]c3cc(C(=O)O)ccc3c2=O)cc1 | 6.91% | 2.31 µM [rising, partial curve, poor fit] | 3.66 µM [rising, partial curve]
Cc1ccc(C2=[N+]([O-])C(C)(C)CC2)cc1 | -15.1% | – | 2.06 µM [falling, partial curve, poor fit]
O=c1c(Cl)c(N2CCOCC2)cnn1-c1ncc(C(F)(F)F)cc1Cl | 7.46% | – | 0.13 µM [falling, full curve, poor fit]
CCOc1ccc(C(=O)C2CCN(C(=O)c3ccccc3C(=O)O)CC2)cc1 | 15.9% | – | –
Cc1ccn2c(C(=O)CSc3ccccc3)c(C)nc2c1 | 23.9% | – | –
COc1ccc(C2CC(c3ccccc3)Nc3nc(NC(=O)c4ccco4)nn32)cc1 (configuration not stated) | 14.7% | – | 0.13 µM [falling, full curve, poor fit]
O=C(Nc1nnc(S(=O)(=O)N2CCCCCC2)s1)c1ccc(Cl)cc1 | -15% | – | –
COc1ccc(CCC(=O)NNC(=O)Nc2ccc(OC)c(OC)c2)cc1 | 8.91% | – | –
Cc1nn(-c2ccc(F)cc2)c2sc(C(=O)OCC(=O)N3CCC(C)CC3)cc12 | – | 0.517 µM [rising, single point] | –
CC1(NC(=O)Cn2cc(C(F)(F)F)ccc2=O)CCS(=O)(=O)C1 (configuration not stated) | 13% | – | 6.51 µM [falling, single point]

3 entries already listed, ordered by molar mass, ascending:
Compound | cell number change | AC50 [1] | AC50 [2]
CCOc1ccc(C(=O)C2CCN(C(=O)c3ccccc3C(=O)O)CC2)cc1 | 15.9% | – | –
Cn1c(=O)c2c(nc(SCc3cccnc3)n2Cc2ccc(F)cc2)n(C)c1=O | -31.1% | 0.00517 µM [falling, full curve, poor fit] | 0.00651 µM [falling, full curve, poor fit]
CCOC(=O)C1CCCN(S(=O)(=O)c2c(C)[nH]c(C)c2C(=O)N2CCCC2)C1 (configuration not stated) | -14.7% | – | 1.46 µM [falling, single point]

Source: PubChem BioAssay AID2685 (National Center for Advancing Translational Sciences (NCATS), 2010)
